According to publication PMC12311512:
No constants are given. Whether binding was seen depends on the method and setting. Binding seen in cells or lysates may run through a third protein. Some results given as binding are weak or reduced against the parent protein; the word gives no strength.

Protein sequences, listed by entry. Tags and fused reporters are not part of them.
UniProt Q9UKB1: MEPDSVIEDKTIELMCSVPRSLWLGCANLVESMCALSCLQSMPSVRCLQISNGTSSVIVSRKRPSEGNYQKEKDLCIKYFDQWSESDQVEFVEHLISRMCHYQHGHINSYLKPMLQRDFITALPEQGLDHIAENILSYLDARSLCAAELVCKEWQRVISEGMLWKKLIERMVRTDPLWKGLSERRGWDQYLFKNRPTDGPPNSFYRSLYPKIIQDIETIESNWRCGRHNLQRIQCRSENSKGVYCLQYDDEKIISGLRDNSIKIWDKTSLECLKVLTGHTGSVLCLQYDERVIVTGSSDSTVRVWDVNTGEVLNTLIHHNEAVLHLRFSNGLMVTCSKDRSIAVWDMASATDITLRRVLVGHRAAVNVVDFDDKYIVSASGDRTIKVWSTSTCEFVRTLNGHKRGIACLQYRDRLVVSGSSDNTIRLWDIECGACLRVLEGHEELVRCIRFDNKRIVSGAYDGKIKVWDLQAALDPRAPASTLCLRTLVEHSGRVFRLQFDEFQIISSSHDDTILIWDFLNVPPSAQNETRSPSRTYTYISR

Molecular target: F-box and tryptophan-aspartic (WD) repeat domain containing 11 (FBXW11) (human (endogenous in A2780 and UWB1.289)) (UniProt Q9UKB1)
Experiment: co-IP; lysates of A2780 and UWB1.289 cells (1,000 μg supernatant) incubated overnight at 4 °C with protein A/G magnetic beads carrying anti-FBXW11 or control IgG; eluate blotted for S100A11

B1: S100 calcium binding protein A11 (S100A11) (protein, UniProt P31949 1-105)
chain: MAKISSPTETERCIESLIAVFQKYAGKDGYNYTLSKTEFLSFMNTELAAFTKNQKDPGVLDRMMKKLDTNSDGQLDFSEFLNLIGGLAMACHDSFLKAVPSQKRT
binding: binds
